This is one part of the list.

This test deals with T1, OsSMF1 (Oryza sativa, UniProt Q6ZLB0 1-436).
T1 sequence: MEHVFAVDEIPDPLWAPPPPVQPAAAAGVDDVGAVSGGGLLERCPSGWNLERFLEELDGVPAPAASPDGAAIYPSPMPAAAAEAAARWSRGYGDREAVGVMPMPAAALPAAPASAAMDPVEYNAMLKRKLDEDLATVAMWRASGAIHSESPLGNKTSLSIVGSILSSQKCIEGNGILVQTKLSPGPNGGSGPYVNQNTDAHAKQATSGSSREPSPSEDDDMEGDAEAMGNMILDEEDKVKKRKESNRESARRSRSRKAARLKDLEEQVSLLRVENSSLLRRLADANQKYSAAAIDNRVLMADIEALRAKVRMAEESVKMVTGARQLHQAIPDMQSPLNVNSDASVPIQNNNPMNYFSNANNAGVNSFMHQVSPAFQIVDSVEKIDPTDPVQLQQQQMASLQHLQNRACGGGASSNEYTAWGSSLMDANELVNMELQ
As to the kind of experiment: protein-binding microarray (RPBM); PBS, 2% BSA, 51.3 ng/ul salmon testes DNA, 50 uM zinc acetate, 200 nM TF, 25 C, 1 h; high values mean tight binding. The settings on record: protein: recombinant; tags: N-terminal polyhistidine and DsRed monomer fusion (pET32a); chain copies: 2; label: CyDye5-dUTP incorporated in the synthesized complementary strand; 3' TTTTT single-stranded linker to array surface; dsDNA, one strand shown. In short, it runs like this: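 Binding signal is defined as the fluorescence intensity of each feature in arbitrary units, read on an Axon 4000B scanner. Transcription factors with N-terminal polyhistidine and DsRed fusions came from E. coli BL21-CodonPlus and were purified on Ni–NTA. They were incubated at 200 nM for 1 h at 25 °C on a custom Agilent array that had been made double-stranded with Cy5-dUTP, with 50 µM zinc acetate present, and the array was washed.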
As for “CAGCGATTACCGGGCGCTGTCCGCGACCCCAACCACCACCCGGAGTCACCTAGTGCAG”, the binding signal is 3140 fluorescence intensity (a.u.). Next, “TGCCGGCACGTGCCTCATCCTCGTCGTTGGCATCCGTGCGCGGAGTCACCTAGTGCAG”: 5440 fluorescence intensity (a.u.); “ACACGTGGGTCCACGTAGGCGACACGTCAATGCCACGTCACGGAGTCACCTAGTGCAG”: 55900 fluorescence intensity (a.u.); “GATGACCACCACCAACAGGCAACAGCAGCAGCGTGGCGCCCGGAGTCACCTAGTGCAG”: 3430 fluorescence intensity (a.u.).

For “GCAGGTGGATTCGGCGAGCGCCCACGTGCTGACCACCGGCCGGAGTCACCTAGTGCAG”, the binding signal is 3590 fluorescence intensity (a.u.).

As to “ATCGGTCGCGGCCGCTGGGATGAAGCCACGCGTCCCTCCCCGGAGTCACCTAGTGCAG”, the binding signal is 5130 fluorescence intensity (a.u.).

For the sequence “CTGCTGCAGTTGAGCTGTACTGTTTTGGTGGGTTGGTTTTCGGAGTCACCTAGTGCAG”, the binding signal is 4070 fluorescence intensity (a.u.). As to “GAATTTATGGTTGAATACTTAACTTAAAATCCAAGGAACCCGGAGTCACCTAGTGCAG”, the binding signal is 3220 fluorescence intensity (a.u.). Take “CACCGCATTCGGGAAGCTCGGACCTGATGAGGCACATCCACGGAGTCACCTAGTGCAG”: the binding signal was 10600 fluorescence intensity (a.u.). With “CCACTGGACCCACATGTCATAGACACATGTGGACCCACATCGGAGTCACCTAGTGCAG”, the binding signal was 3740 fluorescence intensity (a.u.). Next, “CGCCTGCGCCGAGCAGCCGCCGATCTCCGCCACGCGAGCACGGAGTCACCTAGTGCAG”: 5890 fluorescence intensity (a.u.); “CACTGTCATCCACTCGACCTGCCACGACACCCGCCACCGCCGGAGTCACCTAGTGCAG”: 8040 fluorescence intensity (a.u.); “CCCACCAGTTGTGGCCCACGTACGTGGCAATCCCTTCAGGCGGAGTCACCTAGTGCAG”: 6220 fluorescence intensity (a.u.). The same measure for “CCACAGGTGCCTAGCTGGCAGCCGCGCGCCAACGCCGTAGCGGAGTCACCTAGTGCAG”: 4290 fluorescence intensity (a.u.); for “CCGAAGGAGTACGTGCCAAGTCGGCCCATCAGGCCCACGTCGGAGTCACCTAGTGCAG”: 4010 fluorescence intensity (a.u.). Next, “TTTTGTTCAGTTATTCTTCCTCGTGAGGTGATGTCCTTTTCGGAGTCACCTAGTGCAG”: 3480 fluorescence intensity (a.u.); “TTTAGGGTGTTTGGTTGTAGTCACAGTTGTGGCAAGATTCCGGAGTCACCTAGTGCAG”: 3580 fluorescence intensity (a.u.); “CACCGGGTGATCGGTCTGTCACTGCAACGTGGAGCCCATACGGAGTCACCTAGTGCAG”: 7270 fluorescence intensity (a.u.). With “CGGATGAGACACTTCATAGTATAGTGAATTTGGACATGCTCGGAGTCACCTAGTGCAG”, the binding signal was 4180 fluorescence intensity (a.u.). For “ATTATCATCGATCTTCTTGGGGAGGAAGCCTACCTTTGCCCGGAGTCACCTAGTGCAG”, the binding signal was 21000 fluorescence intensity (a.u.). With “GGGGTGGCGATGGAGGTTGGCACCGTTGCCGTGGCAGACCCGGAGTCACCTAGTGCAG”, the binding signal is 4370 fluorescence intensity (a.u.). For the sequence “ACACATAGAGATAGTATACGTGTATGTTTATAGGAGTAAACGGAGTCACCTAGTGCAG”, the binding signal is 3460 fluorescence intensity (a.u.). Next, “TACGAGGAGGCCACGTGGCGAGTCACCTGGCCCAGCTGTCCGGAGTCACCTAGTGCAG”: 21400 fluorescence intensity (a.u.); “CTACTGCCAAGATGACGACAACTAATTATTATCCTCGCAACGGAGTCACCTAGTGCAG”: 4480 fluorescence intensity (a.u.).

As for “TGACTTGGGGTGGTGCTTAGTATGTCATGATATACCAGCACGGAGTCACCTAGTGCAG”, the binding signal is 3970 fluorescence intensity (a.u.).

On to “TGCTACAGAGCTTAGGGATGCTGACGGTCTCATCCACGCTCGGAGTCACCTAGTGCAG”, for which the binding signal is 29700 fluorescence intensity (a.u.). In the case of “AGAACGGCTTGGATGGGTGGTAGCTGAGCTGTAGTCAGACCGGAGTCACCTAGTGCAG”, the binding signal is 3430 fluorescence intensity (a.u.).

Consider “CCTTAGCGTTCACACCTGTTCCTTTCCCGCGCTTCGGATTCGGAGTCACCTAGTGCAG”, for which the binding signal is 3140 fluorescence intensity (a.u.). In the case of “GTTATTATGCAAACTATGTGGTTTAGACTGTAGAGATTGCCGGAGTCACCTAGTGCAG”, the binding signal was 19100 fluorescence intensity (a.u.). Turning to “GTATCCACTCCAGCAACTCCCATAGCCTGGACACGTCAGTCGGAGTCACCTAGTGCAG”, the binding signal is 11500 fluorescence intensity (a.u.).

In the case of “GTTCGTCATGAAATAATAATGAAAAGACACTTTGTTCACACGGAGTCACCTAGTGCAG”, the binding signal is 18100 fluorescence intensity (a.u.). Take “GTGCATCGTGTGTGTGTTTGTTGTTAACGCGTCCGTCGCACGGAGTCACCTAGTGCAG”: the binding signal was 4310 fluorescence intensity (a.u.). Consider “AGCTAGCTATAATAAATCCGCACGTGCTTGTCTTCTCCTCCGGAGTCACCTAGTGCAG”, for which the binding signal is 3230 fluorescence intensity (a.u.). Regarding “GACAGCGAGGTCACCATTTGTCGTGGCTGGGGAGGGACAACGGAGTCACCTAGTGCAG”, the binding signal was 3810 fluorescence intensity (a.u.). With “GCGCGAGGCTACCCCGACCCCGACGTGGTCTCCTCCCACCCGGAGTCACCTAGTGCAG”, the binding signal was 3690 fluorescence intensity (a.u.). Consider “ACCGTCCCCGCCATCCGCTATTGCCACGCCGGCACCGTTCCGGAGTCACCTAGTGCAG”, for which the binding signal was 8420 fluorescence intensity (a.u.). Take “ATATAAATCATGAATAAGTTGTTGAGTTTGAAAATGTAAACGGAGTCACCTAGTGCAG”: the binding signal was 7110 fluorescence intensity (a.u.). With “GGCTGGCCAGCGCGGTTGCTGACGACTGGAGGAGCCTCGCCGGAGTCACCTAGTGCAG”, the binding signal was 4880 fluorescence intensity (a.u.). As to “GGATTAATTGTTAGTACACGCTTGTGTGGCTTTGACGCATCGGAGTCACCTAGTGCAG”, the binding signal was 4700 fluorescence intensity (a.u.).

On to “TCGCGCTGTACACCGGGCCGACGATAAGCCCACTGATCCACGGAGTCACCTAGTGCAG”, for which the binding signal was 4790 fluorescence intensity (a.u.). Take “ATTACTCATAGTCACTATAAATCGATAGGTATTATCCATGCGGAGTCACCTAGTGCAG”: the binding signal is 3470 fluorescence intensity (a.u.). For the sequence “CGCGACGACGACTAGTTTATTTTGCACCACGTACGCACACCGGAGTCACCTAGTGCAG”, the binding signal was 5160 fluorescence intensity (a.u.).

For the origin of these results see PMC7819943, “Rice protein-binding microarrays: a tool to detect cis-acting elements near promoter regions in rice”.
